PubChem BioAssay AID1508597 – Cure First – 2020
Shown is an unselected part of the about 2,100 reagents, in one setting of the screen. 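Calls flag viability under 80% in either arm, not effects specific to rucaparib; the reference for percent is not stated.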 Unmarked entries are inactive. A reagent listed more than once was tested more than once; the source does not tell the runs apart. Reagent sequences are not shown. Not stated in the record: the 100% reference.

Assay: 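Survival screen with siRNA in ovarian cancer cells derived from patients, with or without rucaparib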 (primary screen)
Cells: human ovarian carcinoma lines grown from tumours: OCI-P5x (papillary serous) and OCI-C5x (clear cell)
Knock-down reagent: siRNA pool against human genes, 1.25 pmol siRNA per well
Time to read-out: 72 h or 96 h, depending on the cell culture
Challenge: rucaparib 20 µM (about IC30) or vehicle, present until read-out
Rucaparib or vehicle: Vehicle
Cell line: OCI-P5x (serous)
Read-out: 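Luminescent ATP-based viability assay read 72 or 96 h after transfection, depending on culture, given as normalised percent viability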
Reading the numbers: viability, normalised: higher = more viable cells remaining
Call rule: 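a well counts as a hit if its normalised viability is under 80 percent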
Calls: active = viability under 80%; inactive = viability 80% or more

target gene | technical replicate | viability, normalised (%)
SIRT1 (GeneID 23411) | 1 | 42.5 (active)
SIRT1 (GeneID 23411) | 1 | 74.3 (active)
SIRT1 (GeneID 23411) | 2 | 57.8 (active)
SIRT1 (GeneID 23411) | 2 | 107
SIRT1 (GeneID 23411) | 3 | 80.8
SIRT1 (GeneID 23411) | 3 | 107
EHMT2 (GeneID 10919) | 1 | 46 (active)
EHMT2 (GeneID 10919) | 2 | 40.8 (active)
EHMT2 (GeneID 10919) | 3 | 51.3 (active)
AURKA (GeneID 6790) | 1 | 35 (active)
AURKA (GeneID 6790) | 1 | 57 (active)
AURKA (GeneID 6790) | 2 | 41.7 (active)
AURKA (GeneID 6790) | 2 | 58.5 (active)
AURKA (GeneID 6790) | 3 | 45 (active)
AURKA (GeneID 6790) | 3 | 47.3 (active)

The list goes on, starting with the last 3 of the part before.
target gene | technical replicate | viability, normalised (%)
AURKA (GeneID 6790) | 2 | 58.5 (active)
AURKA (GeneID 6790) | 3 | 45 (active)
AURKA (GeneID 6790) | 3 | 47.3 (active)
JMJD1C (GeneID 221037) | 1 | 73.4 (active)
JMJD1C (GeneID 221037) | 2 | 78.5 (active)
JMJD1C (GeneID 221037) | 3 | 41.9 (active)
KDM1A (GeneID 23028) | 1 | 61.6 (active)
KDM1A (GeneID 23028) | 2 | 66.8 (active)
KDM1A (GeneID 23028) | 3 | 72.6 (active)
DCLRE1A (GeneID 9937) | 1 | 60.4 (active)
DCLRE1A (GeneID 9937) | 2 | 72.8 (active)
DCLRE1A (GeneID 9937) | 3 | 64.7 (active)
